The record followed here is publication PMC1079803.

These are yes or no findings as the source states them, for the method shown. For part of these data: Binding can be weak; no strength is given. For part of these data: In cells and extracts the contact can be indirect.

The target of assay [1] is IporinΔN847ΔC1239 (bait) (human). The experiment in a line: two-hybrid; co-transformation of bait (pAS2-1) and prey (pGADT7) constructs in yeast Y190; plates lacking Trp, Leu and His with 50 mM 3-aminotriazol (his3), 30°C for 5-7 days; β-galactosidase filter lift with X-gal (lacZ).
Assay [2] has as its target GST-Iporin ΔN1430 (human). The assay is described as follows: pull-down; GST fusion proteins on glutathione-Sepharose beads; extract of untransfected HeLa cells, LB buffer, without goat serum; Western blot with GM130 antibodies; only the target purified. (In western blotting, separated proteins are transferred to a membrane and probed.)
Assay [3] addresses GST-Iporin ΔN847ΔC1239 (human). Described as above.

B1: GM130 (prey) (protein, UniProt Q08379 1-1002)
chain: MWPQPRLPPRPAMSEETRQSKLAAAKKKLREYQQRNSPGVPTGAKKKKKIKNGSNPETTTSGGCHSPEDTPKDNAATLQPSDDTVLPGGVPSPGASLTSMAASQNHDADNVPNLMDETKTFSSTESLRQLSQQLNGLVCESATCVNGEGPASSANLKDLESRYQQLAVALDSSYVTNKQLNITIEKLKQQNQEITDQLEEEKKECHQKQGALREQLQVHIQTIGILVSEKAELQTALAHTQHAARQKEGESEDLASRLQYSRRRVGELERALSAVSTQQKKADRYNKELTKERDALRLELYKNTQSNEDLKQEKSELEEKLRVLVTEKAGMQLNLEELQKKLEMTELLLQQFSSRCEAPDANQQLQQAMEERAQLEAHLGQVMESVRQLQMERDKYAENLKGESAMWRQRMQQMSEQVHTLREEKECSMSRVQELETSLAELRNQMAEPPPPEPPAGPSEVEQQLQAEAEHLRKELEGLAGQLQAQVQDNEGLSRLNREQEERLLELERAAELWGEQAEARRQILETMQNDRTTISRALSQNRELKEQLAELQSGFVKLTNENMEITSALQSEQHVKRELGKKLGELQEKLSELKETVELKSQEAQSLQQQRDQYLGHLQQYVAAYQQLTSEKEVLHNQLLLQTQLVDQLQQQEAQGKAVAEMARQELQETQERLEAATQQNQQLRAQLSLMAHPGEGDGLDREEEEDEEEEEEEAVAVPQPMPSIPEDLESREAMVAFFNSAVASAEEEQARLRGQLKEQRVRCRRLAHLLASAQKEPEAAAPAPGTGGDSVCGETHRALQGAMEKLQSRFMELMQEKADLKERVEELEHRCIQLSGETDTIGEYIALYQSQRAVLKERHREKEEYISRLAQDKEEMKVKLLELQELVLRLVGDRNEWHGRFLAAAQNPADEPTSGAPAPQELGAANQQGDLCEVSLAGSVEPAQGEAREGSPRDNPTAQQIMQLLREMQNPRERPGLGSNPCIPFFYRADENDEVKITVI
As for B1, in assay [1], the binding entry is on record as “binds”.

B2: endogenous GM130 (protein, UniProt Q08379 1-1002)
chain: MWPQPRLPPRPAMSEETRQSKLAAAKKKLREYQQRNSPGVPTGAKKKKKIKNGSNPETTTSGGCHSPEDTPKDNAATLQPSDDTVLPGGVPSPGASLTSMAASQNHDADNVPNLMDETKTFSSTESLRQLSQQLNGLVCESATCVNGEGPASSANLKDLESRYQQLAVALDSSYVTNKQLNITIEKLKQQNQEITDQLEEEKKECHQKQGALREQLQVHIQTIGILVSEKAELQTALAHTQHAARQKEGESEDLASRLQYSRRRVGELERALSAVSTQQKKADRYNKELTKERDALRLELYKNTQSNEDLKQEKSELEEKLRVLVTEKAGMQLNLEELQKKLEMTELLLQQFSSRCEAPDANQQLQQAMEERAQLEAHLGQVMESVRQLQMERDKYAENLKGESAMWRQRMQQMSEQVHTLREEKECSMSRVQELETSLAELRNQMAEPPPPEPPAGPSEVEQQLQAEAEHLRKELEGLAGQLQAQVQDNEGLSRLNREQEERLLELERAAELWGEQAEARRQILETMQNDRTTISRALSQNRELKEQLAELQSGFVKLTNENMEITSALQSEQHVKRELGKKLGELQEKLSELKETVELKSQEAQSLQQQRDQYLGHLQQYVAAYQQLTSEKEVLHNQLLLQTQLVDQLQQQEAQGKAVAEMARQELQETQERLEAATQQNQQLRAQLSLMAHPGEGDGLDREEEEDEEEEEEEAVAVPQPMPSIPEDLESREAMVAFFNSAVASAEEEQARLRGQLKEQRVRCRRLAHLLASAQKEPEAAAPAPGTGGDSVCGETHRALQGAMEKLQSRFMELMQEKADLKERVEELEHRCIQLSGETDTIGEYIALYQSQRAVLKERHREKEEYISRLAQDKEEMKVKLLELQELVLRLVGDRNEWHGRFLAAAQNPADEPTSGAPAPQELGAANQQGDLCEVSLAGSVEPAQGEAREGSPRDNPTAQQIMQLLREMQNPRERPGLGSNPCIPFFYRADENDEVKITVI
As to B2, the binding result in assay [2] is given as “no binding”; in assay [3], “binds”.
